Measurements reported in PubChem BioAssay AID602196 (INSERM, 2012).

Purpose: 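Modifiers of cisplatin sensitivity in A549 cells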
Cells: human A549 lung cancer cells
Knock-down reagent: siRNA pair against human genes
Time to read-out: 48 h transfection before cisplatin; time from cisplatin to read-out not stated
Treatment: cisplatin at a dose killing half of control-siRNA cells; exact dose and duration not given
Read-out: 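Shift in cisplatin death relative to control siRNA, from -50 (all cells die) to +50 (no cells die); siRNAs harmful on their own scored 0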
Scale: two-siRNA summed score (-2 to +2): higher = both siRNAs protect from cisplatin killing; -2 means both sensitise
Hit rule: 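Each siRNA scores 0 if harmful alone by LDH or WST-1, otherwise +1 if it reduces and -1 if it increases cisplatin killing; a gene is active when both siRNAs agree (sum +2 or -2)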
Meaning of the calls: active = both siRNAs shift cisplatin killing the same way; inactive = no consistent shift, or siRNA harmful alone
Shown is one part, drawn at random, of about 23,000 reagents. 455 of them (2%) count as active. 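Active includes both protection and sensitisation; some change values fall well beyond the stated -50 to +50 range.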 Unmarked entries are inactive. Further read-outs or replicates are left out here. Reagent sequences are not shown. Not given: the amount of reagent.

The opening 2 entries as a preview:
| two-siRNA summed score (-2 to +2) | Target gene |
| --- | --- |
| -2 (active) | IL23R |
| 0 | FLJ39075 |

The list itself, from the first entry:
| two-siRNA summed score (-2 to +2) | Target gene |
| --- | --- |
| -2 (active) | IL23R |
| 0 | FLJ39075 |
| 0 | RHOF |
| 0 | POLH |
| 0 | ARHGAP12 |
| 1 | LOC284184 |
| 0 | RLIG1 |
| 0 | FTL |
| 0 | CYP2A13 |
| 1 | TRAPPC14 |
| 2 (active) | CHP1 |
| 0 | RAD23BP1 |
| 0 | MGC34830 |
| 0 | CTDP1-DT |
| 0 | ZNF407 |
| -1 | KDM3A |
| 0 | PM20D1-AS1 |
| 0 | C4orf50 |
| 1 | LOC441100 |
| 1 | OSBPL3 |
| -1 | KDF1 |
| 0 | BHMT |
| 0 | DLX2 |
| 0 | NAF1 |
| 0 | KLB |
| 0 | SRPX |
| 0 | RNF6 |
| 0 | AP4B1 |
| -1 | HECTD1 |
| -1 | PCSK5 |
| 1 | CAST |
| 0 | C18orf54 |
| 0 | ABL1 |
| 0 | UNC93B1 |
| -1 | MMP10 |
| 0 | STAC3 |
| 1 | PODN |
| 1 | ATP5PF |
| 1 | BEAN1 |
